From doi:10.1101/2025.04.03.647056
Residue numbers refer to the chain shown, from its start. No constants are given. Whether binding was seen depends on the method and setting. For some of these results: Binding seen in cells or lysates may run through a third protein. For some of these results: Binding can be weak; no strength is given. For some of these results: Sequences can lack the tags named with a protein. Blank lines part the entries; values can stand above or below the substance they belong to.

Key:
[1] = target: T1, GST-tagged NHSL3 fragment 1 (mouse) (UniProt A2A7S8); test: far-Western, overlay or dot blot
T1 sequence: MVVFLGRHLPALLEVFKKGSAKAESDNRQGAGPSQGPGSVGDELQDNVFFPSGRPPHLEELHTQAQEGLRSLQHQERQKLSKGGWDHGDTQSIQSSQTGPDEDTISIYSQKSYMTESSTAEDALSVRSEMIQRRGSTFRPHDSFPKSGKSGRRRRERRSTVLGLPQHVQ

[2] = target: T2, GST-tagged NHSL3 fragment 4 (aa535-701) (mouse) (UniProt A2A7S8); test: far-Western, overlay or dot blot
T2 sequence: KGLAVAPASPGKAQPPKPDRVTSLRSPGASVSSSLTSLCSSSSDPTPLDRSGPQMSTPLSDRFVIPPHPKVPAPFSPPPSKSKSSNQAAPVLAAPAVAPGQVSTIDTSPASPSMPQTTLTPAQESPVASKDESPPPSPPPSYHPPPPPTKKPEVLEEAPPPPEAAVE

[3] = target: T3, NHSL3ΔSH3ΔFP4-1/2-EGFP (Abi SH3 binding site and both EVH1 binding motifs mutated) (mouse) (UniProt A2A7S8); test: co-IP
T3 sequence: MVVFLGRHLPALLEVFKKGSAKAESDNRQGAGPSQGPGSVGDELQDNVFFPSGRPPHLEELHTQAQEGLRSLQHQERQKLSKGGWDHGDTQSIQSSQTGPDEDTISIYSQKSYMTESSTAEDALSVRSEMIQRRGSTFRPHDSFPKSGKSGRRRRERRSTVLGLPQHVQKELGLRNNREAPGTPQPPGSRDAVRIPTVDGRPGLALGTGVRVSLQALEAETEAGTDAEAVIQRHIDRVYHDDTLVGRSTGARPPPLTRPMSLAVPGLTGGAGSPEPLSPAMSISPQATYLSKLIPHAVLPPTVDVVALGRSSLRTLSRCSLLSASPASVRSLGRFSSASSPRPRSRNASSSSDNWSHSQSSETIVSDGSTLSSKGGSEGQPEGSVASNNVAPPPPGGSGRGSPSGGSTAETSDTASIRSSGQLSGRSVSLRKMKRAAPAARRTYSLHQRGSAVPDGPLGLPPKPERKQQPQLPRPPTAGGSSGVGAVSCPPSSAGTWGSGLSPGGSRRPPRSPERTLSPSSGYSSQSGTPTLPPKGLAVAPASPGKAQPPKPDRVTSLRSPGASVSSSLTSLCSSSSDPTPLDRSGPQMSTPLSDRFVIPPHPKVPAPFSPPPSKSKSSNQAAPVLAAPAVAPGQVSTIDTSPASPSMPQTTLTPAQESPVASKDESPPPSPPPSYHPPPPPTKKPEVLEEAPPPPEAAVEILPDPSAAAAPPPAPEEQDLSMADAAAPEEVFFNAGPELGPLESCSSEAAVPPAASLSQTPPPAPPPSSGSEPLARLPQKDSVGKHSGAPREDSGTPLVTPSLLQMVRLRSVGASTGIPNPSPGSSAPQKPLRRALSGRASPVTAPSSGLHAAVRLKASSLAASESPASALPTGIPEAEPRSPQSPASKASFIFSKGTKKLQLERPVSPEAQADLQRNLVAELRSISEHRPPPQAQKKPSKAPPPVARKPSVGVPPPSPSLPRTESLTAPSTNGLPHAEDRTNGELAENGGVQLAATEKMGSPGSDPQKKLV

[4] = target: T4, NHSL3ΔFP4-1/2-EGFP (both EVH1 domain binding motifs mutated) (mouse) (UniProt A2A7S8); test: co-IP
T4 sequence: T3 sequence with A436P, A437P, A439P, A440P

[5] = target: T4, NHSL3ΔFP4-1/2-EGFP (both EVH1 domain binding motifs mutated) (mouse); test: co-IP; remark: listed apart in the source
[6] = target: T5, NHSL3ΔEVH1-2-EGFP (second EVH1 domain binding motif mutated) (mouse) (UniProt A2A7S8); test: pull-down
T5 sequence: T3 sequence with A436P, A437P, A439P, A440P, A708W, A709P, A710P, A711P

[7] = target: T4, NHSL3ΔFP4-1/2-EGFP (both EVH1 domain binding motifs mutated) (mouse); test: pull-down
[8] = target: NHSL3-EGFP (wild-type mouse NHSL3 isoform 1c, C-terminally tagged with EGFP) (mouse) (UniProt A2A7S8); test: pull-down
[9] = target: T6, NHSL3ΔEVH1-1-EGFP (first EVH1 domain binding motif mutated) (mouse) (UniProt A2A7S8); test: pull-down
T6 sequence: T3 sequence with A436P, A437P, A439P, A440P, A726F, A727P, A728P

[10] = target: endogenous NHSL3 (mouse (endogenous in B16-F1)) (UniProt A2A7S8); test: co-IP

binding [1]: no binding
binding [2]: no binding
Substance: MBP-Abi1 (full length) (human (printed as hsAbi1d))

binding [3]: binds
binding [4]: binds
binding [5]: binds
Substance: Myc-Abi1 (human (printed as hsAbi1d))

binding [6]: no binding
binding [7]: no binding
binding [8]: binds
binding [9]: no binding
Substance: Myc-Mena (from UniProt Q03173-3)

binding [10]: binds
Substance: endogenous Mena (from UniProt Q03173-3)
